Literature values in patent US20060110767A1, “Genotyping assay to predict cytochrome P4503A5 exression” (priority 2001, published 2006).

Chains of the proteins cited; added tags and fusions are not shown.
UniProt P08684, whole entry: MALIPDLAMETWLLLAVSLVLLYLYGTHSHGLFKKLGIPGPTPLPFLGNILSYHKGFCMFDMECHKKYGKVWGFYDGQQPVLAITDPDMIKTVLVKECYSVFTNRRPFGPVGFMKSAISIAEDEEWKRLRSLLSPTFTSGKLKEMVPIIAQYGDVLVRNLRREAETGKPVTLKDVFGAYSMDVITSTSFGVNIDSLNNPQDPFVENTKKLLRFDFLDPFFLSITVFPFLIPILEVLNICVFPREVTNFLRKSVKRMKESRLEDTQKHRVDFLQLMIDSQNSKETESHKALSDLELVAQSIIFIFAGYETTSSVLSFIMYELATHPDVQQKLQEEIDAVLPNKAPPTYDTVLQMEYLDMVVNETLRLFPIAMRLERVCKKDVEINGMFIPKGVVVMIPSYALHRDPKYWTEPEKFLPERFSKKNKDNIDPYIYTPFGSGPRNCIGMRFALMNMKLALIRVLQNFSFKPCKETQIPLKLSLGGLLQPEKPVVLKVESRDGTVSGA
UniProt P24462, whole entry: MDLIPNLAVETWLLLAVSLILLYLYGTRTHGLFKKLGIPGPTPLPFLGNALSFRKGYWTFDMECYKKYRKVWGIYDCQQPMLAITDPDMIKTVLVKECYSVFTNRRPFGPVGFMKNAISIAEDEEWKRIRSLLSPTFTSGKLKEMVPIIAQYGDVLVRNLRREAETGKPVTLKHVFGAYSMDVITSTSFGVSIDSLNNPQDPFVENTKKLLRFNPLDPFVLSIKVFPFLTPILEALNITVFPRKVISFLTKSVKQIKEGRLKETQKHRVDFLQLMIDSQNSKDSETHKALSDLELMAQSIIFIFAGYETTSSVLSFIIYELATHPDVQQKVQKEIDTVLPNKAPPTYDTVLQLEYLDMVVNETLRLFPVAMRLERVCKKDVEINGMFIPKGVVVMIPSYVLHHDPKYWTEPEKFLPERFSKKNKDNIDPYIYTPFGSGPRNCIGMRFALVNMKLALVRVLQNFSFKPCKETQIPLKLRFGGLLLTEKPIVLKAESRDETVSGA

How the values were obtained:
[1] = target: CYP3A4 (Homo sapiens, UniProt P08684); set-up: key to the marks not given beside the values; conditions: cited from earlier work
[2] = target: CYP3A7 (Homo sapiens, UniProt P24462); set-up: key to the marks not given beside the values; conditions: cited from earlier work

For `COC(=O)C1=C(C)NC(C)=C(C(=O)OC)C1c1ccccc1[N+](=O)[O-]` [Nifedipine], the “CYP isoforms expressed in cells 3A4” value [1] is listed as “+++” and the “CYP isoforms expressed in cells 3A7” value [2] is listed as “+++”.
